Data taken from PMC7861556.
No constants are given. Whether binding was seen depends on the method and setting. In cells and extracts the contact can be indirect. These calls come from enrichment with a bait or labelling near it, and not all partners need be listed. For some of these results: Tags and fused reporters may be left off the sequences shown.

The chains behind the UniProt entries cited, without tags or fusion partners.
UniProt Q8CIN4: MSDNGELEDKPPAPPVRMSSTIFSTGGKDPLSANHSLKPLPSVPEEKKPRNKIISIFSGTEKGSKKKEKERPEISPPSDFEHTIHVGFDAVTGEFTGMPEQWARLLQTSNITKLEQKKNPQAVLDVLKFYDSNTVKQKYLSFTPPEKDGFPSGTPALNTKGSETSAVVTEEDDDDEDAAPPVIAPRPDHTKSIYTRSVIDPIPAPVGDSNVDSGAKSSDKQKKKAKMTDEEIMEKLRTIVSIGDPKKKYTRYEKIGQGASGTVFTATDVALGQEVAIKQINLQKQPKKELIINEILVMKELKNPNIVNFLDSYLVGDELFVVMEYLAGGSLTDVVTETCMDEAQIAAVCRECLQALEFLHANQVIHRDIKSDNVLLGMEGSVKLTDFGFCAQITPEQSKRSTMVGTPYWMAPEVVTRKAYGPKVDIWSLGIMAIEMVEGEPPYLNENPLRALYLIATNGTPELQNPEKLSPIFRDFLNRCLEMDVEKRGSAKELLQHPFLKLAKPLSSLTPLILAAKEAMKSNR
UniProt P99024: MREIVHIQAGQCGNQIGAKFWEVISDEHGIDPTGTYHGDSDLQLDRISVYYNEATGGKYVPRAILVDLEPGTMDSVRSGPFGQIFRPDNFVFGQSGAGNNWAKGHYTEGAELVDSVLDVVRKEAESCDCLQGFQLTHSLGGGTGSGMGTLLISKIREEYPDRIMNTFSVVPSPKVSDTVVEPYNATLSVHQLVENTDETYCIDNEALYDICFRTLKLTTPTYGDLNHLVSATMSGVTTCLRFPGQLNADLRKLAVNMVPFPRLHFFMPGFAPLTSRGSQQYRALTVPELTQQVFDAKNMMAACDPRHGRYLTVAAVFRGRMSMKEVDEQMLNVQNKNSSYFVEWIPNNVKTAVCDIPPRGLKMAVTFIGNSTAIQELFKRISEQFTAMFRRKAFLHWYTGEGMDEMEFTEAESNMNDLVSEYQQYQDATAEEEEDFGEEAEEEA
UniProt Q7TPR4: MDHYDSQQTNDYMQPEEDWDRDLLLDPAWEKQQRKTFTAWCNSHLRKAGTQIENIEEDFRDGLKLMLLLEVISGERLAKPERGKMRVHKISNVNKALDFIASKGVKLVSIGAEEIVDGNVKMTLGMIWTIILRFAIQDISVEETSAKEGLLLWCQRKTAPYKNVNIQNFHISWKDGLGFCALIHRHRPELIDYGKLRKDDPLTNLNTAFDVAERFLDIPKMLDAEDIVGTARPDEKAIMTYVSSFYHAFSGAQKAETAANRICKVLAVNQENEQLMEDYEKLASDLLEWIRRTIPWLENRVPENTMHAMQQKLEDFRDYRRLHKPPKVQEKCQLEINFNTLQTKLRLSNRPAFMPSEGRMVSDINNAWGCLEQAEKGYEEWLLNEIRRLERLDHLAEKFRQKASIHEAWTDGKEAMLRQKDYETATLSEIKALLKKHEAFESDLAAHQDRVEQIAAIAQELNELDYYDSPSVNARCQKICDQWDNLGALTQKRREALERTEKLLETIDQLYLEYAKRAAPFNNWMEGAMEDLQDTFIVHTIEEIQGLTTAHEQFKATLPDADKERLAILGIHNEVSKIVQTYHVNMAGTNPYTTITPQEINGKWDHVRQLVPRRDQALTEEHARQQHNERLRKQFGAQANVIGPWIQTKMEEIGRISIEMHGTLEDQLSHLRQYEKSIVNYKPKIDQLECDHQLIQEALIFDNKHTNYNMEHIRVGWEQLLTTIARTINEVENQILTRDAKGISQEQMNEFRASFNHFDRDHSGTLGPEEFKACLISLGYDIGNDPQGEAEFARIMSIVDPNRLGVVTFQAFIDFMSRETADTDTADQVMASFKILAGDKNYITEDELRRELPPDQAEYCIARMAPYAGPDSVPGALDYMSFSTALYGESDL
UniProt P15331: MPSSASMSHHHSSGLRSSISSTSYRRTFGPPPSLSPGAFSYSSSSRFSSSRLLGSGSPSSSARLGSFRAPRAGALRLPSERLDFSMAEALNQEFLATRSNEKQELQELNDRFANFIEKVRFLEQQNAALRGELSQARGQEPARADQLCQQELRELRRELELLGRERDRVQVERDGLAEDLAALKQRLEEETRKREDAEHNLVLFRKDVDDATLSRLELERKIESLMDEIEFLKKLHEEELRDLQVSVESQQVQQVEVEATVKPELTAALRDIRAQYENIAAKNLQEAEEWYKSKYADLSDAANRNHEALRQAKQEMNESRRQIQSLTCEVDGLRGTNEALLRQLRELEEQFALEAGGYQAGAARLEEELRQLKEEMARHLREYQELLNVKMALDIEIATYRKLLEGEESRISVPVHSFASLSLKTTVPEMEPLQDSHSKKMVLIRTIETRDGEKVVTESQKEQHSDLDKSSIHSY
UniProt Q80ZM5: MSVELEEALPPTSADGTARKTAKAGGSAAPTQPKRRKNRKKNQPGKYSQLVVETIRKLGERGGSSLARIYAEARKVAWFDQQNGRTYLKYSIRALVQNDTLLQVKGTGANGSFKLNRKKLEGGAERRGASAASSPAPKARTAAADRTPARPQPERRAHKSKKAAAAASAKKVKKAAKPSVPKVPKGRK

B1: Alpha-1,4-N-acetylglucosaminyltransferase (protein, UniProt Q14BT6 1-341)
chain: MLKEIYLSLSLVLVFACGLLYQLTMRSQCFFACLPPFSFPQGLDGLLRSGRSIMFIETSERVEPPPMVSCAVESAAKIYPEQPIIFFMKGLRDSVQLTSNTSYPAFSLLSAINNVFFVPLDMERLFKDTPLFSWYTKVNSSTEKHWLHVSSDAARLAIIWKYGGIYMDTDVISLQPIPEENFLAAQGSRHSSNGVFGFLPHHPFLWACMENFVEHYDSTIWGNQGPQLMTRMLRVWCRLKDFHGLGDLKCLNISFLHPQRFYPIPYPQWKRYYQVWDKEPSFNESYALHLWNYMNKEGKTVVRGSKTLVENLYQKHCPKTYRVLIQGAEGTVSKKPGTGSR
B2: Rho guanine nucleotide exchange factor 6 α-PIX (protein, UniProt Q8K4I3 1-771)
chain: MNPEERLVTWLISLGVLESPKKTVCDPEEFLKSSLKNGVVLCKLINRLLPGSVEKYCLEPQTEADCIDNINDFLKGCATLQVEVFEPDDLYSGANFSKVLNTLLAVNKATEDQLSERPCGRSSSLSAATSSQTNPQVAVPSTAPEQHSEEKAEMTENGSHQLIVKARFNFKQTNEDELSVCKGDIIYVTRVEEGGWWEGTLNGRTGWFPSNYVREIKPSERPLSPKAIKGFDTAPLTKNYYTVVLQNILDTEKEYAKELQSLLVTYLRPLQSNNNLSTVEFTCLLGNFEEVCTFQQTLCQALEECSKFPENQHKVGGCLLNLMPHFKSMYLAYCANHPSAVNVLTQHSDDLERFMENQGASSPGILILTTSLSKPFMRLEKYVTLLQELERHMEDTHPDHQDILKAIIAFKTLMGQCQDLRKRKQLELQILSEPIQAWEGDDIKTLGNVIFMSQVVMQHGACEEKEERYFLLFSSVLIMLSASPRMSGFMYQGKIPIAGMVVNRLDEIEGSDCMFEITGSTVERIVVHCNNNQDFQEWMEQLNRLTKGPTSCGSLSKTSSSSCSTHSSFSSTGQPRGPLEPPQIIKPWSLSCLRPAPPLRPSAALGYKERMSYILKESSKSPKTMKKFLHKRKTERKASEEEYVIRKSTAALEEDAQILKVIEAYCTSASFQQGTRKDSVPQVLLPEEEKLIIEETRSNGQTIIEEKSLVDTVYALKDEVKELKQENKKMKQCLEEELKSRKDLEKLVRKLLKQTDECIRSESSSKTSILQ
B3: Rho guanine nucleotide exchange factor 7 β-PIX (protein, UniProt Q9ES28 1-862)
chain: MNSAEQTVTWLITLGVLESPKKTISDPEVFLQASLKDGVVLCRLLERLLPGTIEKVYPEPRNESECLSNIREFLRACGASLRLETFDANDLYQGQNFNKVLSSLVTLNKVTADIGLGSDSVCARPSSHRIKSFDSLGSQSSHSRTSKLLQSQYRSLDMTDNTNSQLVVRAKFNFQQTNEDELSFSKGDVIHVTRVEEGGWWEGTHNGRTGWFPSNYVREIKPSEKPVSPKSGTLKSPPKGFDTTAINKSYYNVVLQNILETEHEYSKELQSVLSTYLRPLQTSDKLSSANTSYLMGNLEEISSFQQVLVQSLEECTKSPEAQQRVGGCFLSLMPQMRTLYLAYCANHPSAVSVLTEHSEDLGEFMETKGASSPGILVLTTGLSKPFMRLDKYPTLLKELERHMEDYHPDRQDIQKSMTAFKNLSAQCQEVRKRKELELQILTEPIRSWEGDDIKTLGSVTYMSQVTIQCAGSEEKNERYLLLFPNLLLMLSASPRMSGFIYQGKLPTTGMTITKLEDSENHRNAFEISGSMIERILVSCTSQQDLHEWVEHLQKQTKVTSVSNPTIKPHSVPSHTLPSHPLTPSSKHADSKPVALTPAYHTLPHPSHHGTPHTTISWGPLEPPKTPKPWSLSCLRPAPPLRPSAALCYKEDLSKSPKTMKKLLPKRKPERKPSDEEFAVRKSTAALEEDAQILKVIEAYCTSAKTRQTLNSTWQGTDLMHNHVLADDDQSSLDSLGRRSSLSRLEPSDLSEDSEYDSIWTAHSYRMGSASRSRKESAPQVLLPEEEKIIVEETKSNGQTVIEEKSLVDTVYALKDEVQELRQDNKKMKKSLEEEQRARKDLEKLVRKVLKNMNDPAWDETNL
B4: ARF GTPase-activating protein GIT1 (protein, UniProt Q68FF6 1-770)
chain: MSRKGPRAEVCADCSAPDPGWASISRGVLVCDECCSVHRSLGRHISIVKHLRHSAWPPTLLQMVHTLASNGANSIWEHSLLDPAQVQSGRRKANPQDKVHPIKSEFIRAKYQMLAFVHKLPCRDDDGVTAKDLSKQLHSSVRTGNLETCLRLLSLGAQANFFHPEKGTTPLHVAAKAGQTLQAELLVVYGADPGSPDVNGRTPIDYARQAGHHELAERLVECQYELTDRLAFYLCGRKPDHKNGHYIIPQMADRSRQKCMSQSLDLSELAKAAKKKLQALSNRLFEELAMDVYDEVDRRENDAVWLATQNHSTLVTERSAVPFLPVNPEYSATRNQGRQKLARFNAREFATLIIDILSEAKRRQQGKSLSSPTDNLELSARSQSELDDQHDYDSVASDEDTDQEPLPSAGATRNNRARSMDSSDLSDGAVTLQEYLELKKALATSEAKVQQLMKVNSSLSDELRRLQREIHKLQAENLQLRQPPGPVPPPSLPSERAEHTLMGPGGSTHRRDRQAFSMYEPGSALKPFGGTPGDELATRLQPFHSTELEDDAIYSVHVPAGLYRIRKGVSASSVPFTPSSPLLSCSQEGSRHASKLSRHGSGADSDYENTQSGDPLLGLEGKRFLELSKEDELHPELESLDGDLDPGLPSTEDVILKTEQVTKNIQELLRAAQEFKHDSFVPCSEKIHLAVTEMASLFPKRPALEPVRSSLRLLNASAYRLQSECRKTVPPEPGAPVDFQLLTQQVIQCAYDIAKAAKQLVTITTREKKQ
B5: Casein kinase II subunit alpha-interacting protein (protein, UniProt Q8CH19 1-720)
chain: MVPLGYNNKYFGYVQDCQQQATDNSPIHYYTGDKQNQSYSQSMCKEQSQNTVTVSPASFNKKAQSTQGSYNRAMKSSSSLYSTCSTTPSKDSLLKNSSYPSWKSLDSSLSHHKSETTSLTSFTSTSSLEPSKISSRSRLLLPKTQTSSSIDLCWKSPSLESNQRVSTSSSTSVQHHEAPSLNIIWTTPSLESNQSEHDSQLCKSKSQKDSSLDRLWSSLLESSQKALSSPSFTNRLQRNSFPPTSSSLEFSRVARNSPLPDCSKPLKIPVSNSNNNVFSLPLSPAKSRKSTPSPHSFLPSRRLSTCQPKPKIVARCDPSTRAINTAVCHPKVQNTASLSDKQRPRQLPSIHPKPNPSGQRVSSPKPCIKNKIASVPCSRLPNKSSVERSVKTEPENEISWALDYSHPCIIKGGSVPVDVVNKIINSISKSTIQKDLSRQILFRRMRGKPNPRPGPRLSSTYSVCLECASAIKSQCNHLSGKRDPRCATLFVIPTPESSTDGKVDVKIILILSLPEKPSSTCFQLPMKDSKSENNLEALDDNLDVLEKITQFFPASESDFIQGLKTKRKCLAVSSESKDLSQEPQSIDWLLYVKNSNGIQLETQVQGPSSSSSSSCSSVSSSSSASSIGRPSPPTPWVDPTPVPVSGYVLAKVRSYHRLPPGTSWLEFIRGSSSDTIKLRQSPPVKAKPVRSHNSKCLKKGKRETSALLRYFQTKFQNEKS
B6: ARF GTPase-activating protein GIT2 (protein, UniProt Q9JLQ2 1-708)
chain: MSKRLRSSDVCADCNGPDPSWASVNRGTFICDECCSVHRSLGRHISQVRHLKHTAWPPTLLQMVETLYNNGANSIWEHSLLDPASIMSGRRKANPQDKVHPNKAEFIRAKYQMLAFVHRLPCREDDSVTAKDLSKQLHSSVRTGNLETCLRLLSLGAQANFFHPEKGSTPLHVASKAGQILQAELLAVYGADPGTQDSSGKTPVDYARQGGHHELAERLIEIQYELTDRLAFYLCGRKPDHKSGQHFLIPQRADSLDLSELAKAAKKKLQSLSNHLFEELAMDVYDEVDRRETDAVWLATQNHSTLVTETTVVPFLPVNPEYSSTRNQGRQKLARFNAHEFATLVIDILSDAKRRQQGSPLSRSKDNVELILRTVSTQHSTESQDNDQPDYDSVASDEDTDVETRASKANRQKLQTLQSENSSLRRQATASACQVQTGSDHKDTASHSSLKRRPSARGSRPMSMYETGSGQKPYLPMGEASHPEESRTRLQPFPTHIGRSALVTSSSSLPSFPSTLSWSRDESARRASRLEKQNSTPESDYDNTACDPEPDDTGSTRKGRQRSMLWQGDGLLPDTAEPHSVPSPTLPSTEDVIRKTEQITKNIQELLRAAQENKHDSYIPCSERIHVAVTEMAALFPKKPKSDTVRTSLRLLTSSAYRLQSECRKALPGDSSLPTDVQLVTQQVIQCAYDIAKAAKQLVTITTKENSS

target: Serine/threonine-protein kinase PAK2 (mouse (endogenous in Neuro2A)) (UniProt Q8CIN4); assay: affinity purification with mass spectrometry; PAK2 immunoprecipitated with PAK2 antibody-conjugated beads (2 h) from lysates (PBS pH 7.4, 1% DDM) of Neuro2A cells treated without or with PQA-18 100 nM for 30 min in the absence or presence of anti-IL-31Rα antibody 50 ng/ml; washed with PBS, 0.05% …; tryptic peptides analysed by LC/MS/MS; normal rabbit IgG-beads as negative control

binding	Molecule
binds	Tubulin beta-5 chain (from UniProt P99024 1-444)
binds	Alpha-actinin-1 (from UniProt Q7TPR4 1-892)
binds	Peripherin (from UniProt P15331 1-475)
binds	H1 histone family, member X (from UniProt Q80ZM5 1-188)

target: Serine/threonine-protein kinase PAK2 (mouse (endogenous in Neuro2A)) (UniProt Q8CIN4); assay: as above; remark: another data set of the same source

binding	Molecule
binds	B1
binds	B2
binds	B3
binds	B4
binds	B5
binds	B6
